# Measurements taken from PMC9233729.
# Sequences of proteins named here, by UniProt entry; tags and fusion partners are left off.
# UniProt P48432: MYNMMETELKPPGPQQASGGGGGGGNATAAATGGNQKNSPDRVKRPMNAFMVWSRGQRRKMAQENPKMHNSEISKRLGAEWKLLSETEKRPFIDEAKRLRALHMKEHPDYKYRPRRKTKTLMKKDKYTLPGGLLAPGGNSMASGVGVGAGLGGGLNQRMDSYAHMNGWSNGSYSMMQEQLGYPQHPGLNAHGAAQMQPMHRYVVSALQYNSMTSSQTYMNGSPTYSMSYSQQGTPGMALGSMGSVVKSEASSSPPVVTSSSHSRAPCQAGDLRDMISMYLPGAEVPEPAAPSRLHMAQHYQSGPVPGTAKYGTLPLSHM
# UniProt P20263: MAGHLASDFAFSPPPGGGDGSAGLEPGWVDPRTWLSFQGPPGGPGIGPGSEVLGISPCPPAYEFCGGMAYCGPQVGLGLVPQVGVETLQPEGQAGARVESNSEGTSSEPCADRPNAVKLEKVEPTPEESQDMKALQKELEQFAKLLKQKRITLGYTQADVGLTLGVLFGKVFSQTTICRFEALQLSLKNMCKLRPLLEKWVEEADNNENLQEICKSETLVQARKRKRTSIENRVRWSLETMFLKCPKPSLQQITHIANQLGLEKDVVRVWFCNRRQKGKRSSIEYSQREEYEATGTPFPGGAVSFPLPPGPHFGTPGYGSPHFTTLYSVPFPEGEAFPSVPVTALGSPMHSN
# UniProt Q3URK3: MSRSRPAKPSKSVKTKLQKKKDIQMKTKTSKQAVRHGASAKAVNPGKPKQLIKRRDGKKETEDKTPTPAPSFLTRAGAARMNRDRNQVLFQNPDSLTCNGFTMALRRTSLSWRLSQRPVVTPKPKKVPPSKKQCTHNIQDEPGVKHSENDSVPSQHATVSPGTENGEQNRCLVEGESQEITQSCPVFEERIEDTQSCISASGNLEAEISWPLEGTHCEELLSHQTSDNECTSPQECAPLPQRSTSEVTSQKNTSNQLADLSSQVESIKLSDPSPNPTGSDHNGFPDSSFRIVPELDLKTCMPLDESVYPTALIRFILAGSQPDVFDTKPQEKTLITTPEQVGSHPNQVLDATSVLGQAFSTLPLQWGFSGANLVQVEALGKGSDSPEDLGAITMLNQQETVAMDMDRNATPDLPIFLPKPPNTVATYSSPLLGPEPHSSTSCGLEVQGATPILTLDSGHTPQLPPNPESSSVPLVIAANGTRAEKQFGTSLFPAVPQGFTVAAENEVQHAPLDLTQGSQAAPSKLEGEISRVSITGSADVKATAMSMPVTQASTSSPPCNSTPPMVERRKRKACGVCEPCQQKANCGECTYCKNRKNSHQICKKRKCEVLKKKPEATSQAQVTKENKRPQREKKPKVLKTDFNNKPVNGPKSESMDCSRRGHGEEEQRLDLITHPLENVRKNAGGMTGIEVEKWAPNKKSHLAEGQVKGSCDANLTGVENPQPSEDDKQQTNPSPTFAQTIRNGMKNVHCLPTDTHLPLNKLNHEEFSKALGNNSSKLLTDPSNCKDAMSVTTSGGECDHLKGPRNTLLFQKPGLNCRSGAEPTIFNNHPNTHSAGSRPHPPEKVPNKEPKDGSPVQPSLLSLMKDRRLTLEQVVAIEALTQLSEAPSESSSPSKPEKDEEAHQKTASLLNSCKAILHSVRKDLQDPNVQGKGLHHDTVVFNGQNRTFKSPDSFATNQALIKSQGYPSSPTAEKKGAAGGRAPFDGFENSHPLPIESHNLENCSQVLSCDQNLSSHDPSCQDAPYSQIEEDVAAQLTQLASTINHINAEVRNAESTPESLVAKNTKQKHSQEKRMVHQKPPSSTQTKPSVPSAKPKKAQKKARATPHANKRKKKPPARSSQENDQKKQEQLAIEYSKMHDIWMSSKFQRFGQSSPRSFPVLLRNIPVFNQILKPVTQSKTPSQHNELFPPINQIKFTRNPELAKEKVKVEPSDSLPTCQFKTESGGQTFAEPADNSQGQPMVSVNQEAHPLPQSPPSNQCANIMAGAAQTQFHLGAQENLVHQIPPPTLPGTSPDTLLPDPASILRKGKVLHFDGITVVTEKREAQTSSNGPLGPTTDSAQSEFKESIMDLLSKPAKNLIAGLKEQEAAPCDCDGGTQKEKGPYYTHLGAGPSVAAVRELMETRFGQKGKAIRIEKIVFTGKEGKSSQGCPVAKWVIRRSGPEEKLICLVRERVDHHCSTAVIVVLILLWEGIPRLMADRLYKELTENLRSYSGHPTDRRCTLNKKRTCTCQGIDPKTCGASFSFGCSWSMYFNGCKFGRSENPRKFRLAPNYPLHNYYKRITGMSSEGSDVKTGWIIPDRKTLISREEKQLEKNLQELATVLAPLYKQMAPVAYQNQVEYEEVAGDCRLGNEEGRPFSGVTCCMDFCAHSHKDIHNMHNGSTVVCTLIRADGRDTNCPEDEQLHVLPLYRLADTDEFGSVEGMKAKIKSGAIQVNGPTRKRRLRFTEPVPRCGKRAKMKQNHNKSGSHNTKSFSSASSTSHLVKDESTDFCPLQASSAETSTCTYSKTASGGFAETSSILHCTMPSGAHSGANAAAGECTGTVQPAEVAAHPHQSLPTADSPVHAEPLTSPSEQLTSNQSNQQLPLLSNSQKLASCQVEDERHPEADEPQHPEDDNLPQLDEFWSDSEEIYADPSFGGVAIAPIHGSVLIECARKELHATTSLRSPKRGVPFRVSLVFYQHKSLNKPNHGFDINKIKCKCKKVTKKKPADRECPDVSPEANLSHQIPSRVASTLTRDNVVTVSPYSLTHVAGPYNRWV
# No constants are given. Whether binding was seen depends on the method and setting. In cells and extracts the contact can be indirect. Some results given as binding are weak or reduced against the parent protein; the word gives no strength. Sequences can lack the tags named with a protein.
# B1: HA-tagged mouse Bend5 (protein, UniProt Q8C6D4 1-421)
# chain: MYAFVRFLEDNVCYALPVSCVRDFSPRSRLDFDNQKVYAVYRGPEELGAEPESPPRAPRDWGALLLHKAQILALAEDKSDLENSVMQKKIKIPKLSLSHVEDDGEVKDYGEEDLQLRHIKRPEGRKPSEAAHKSIEAVVARLERQNGLSLGHSTCPEEVFVEASPGTEDMDSLEDAVVPRALYEELLRNYQQQQEEMRHLQQELERTRRQLVQQAKKLKEYGALVSEMKELRDLNRRLQDVLLLRLGSGPAIDLEKVKSECLEPEPELRSTFSEEANTSSYYPAPAPVMDKYILDNGKVHLGSGIWVDEEKWHQLQVTQGDSKYTKNLAVMIWGTDVLKNRSVTGVATKKKKDAIPKPPLSPHKLSIVRECLYDRIAQETVDETEIAQRLSKVNKYICEKIMDINKSCKNEERREAKYNLQ
# B2: mouse Bend5 (pairwise BiFC fusion) (protein, UniProt Q8C6D4 1-421)
# chain: B1 chain
# B3: Flag-tagged Bend5 (protein, UniProt Q8C6D4 1-421)
# chain: B1 chain
# What was measured:
# [1] = target: GST-tagged mouse Sox2 (mouse) (UniProt P48432); assay: pull-down; GST pull-down with Glutathione Sepharose 4B from cells co-transfected with HA- and GST-tagged proteins; Western blot with anti-HA and anti-GST
# [2] = target: GST-tagged mouse Oct4 (mouse) (UniProt P20263); assay: as above
# [3] = target: mouse Oct4 (pairwise BiFC fusion) (mouse) (UniProt P20263); assay: split reporter; pairwise BiFC assay (Fig. S2B)
# [4] = target: mouse Sox2 (pairwise BiFC fusion) (mouse) (UniProt P48432); assay: split reporter; pairwise BiFC assay (Fig. S2B)
# HA-tagged Tet1 = HA-tagged Tet1 (UniProt Q3URK3); assay: co-IP; HEK293T cells co-transfected with Flag-Bend5 and HA-Tet1; immunoprecipitation with rabbit anti-Tet1 antibody; Western blot with HA and Flag antibodies
binder,measurement,setting,value
B1,binding,[1],binds
same,binding,[2],binds
B2,binding,[3],binds
same,binding,[4],binds
B3,binding,HA-tagged Tet1,binds
